In all, about 330,000 compounds went through this assay and about 7,700 (2.3%) were called active. Inconclusive means that the source gave no clear call. Such entries were picked first, then a sample of the others. The call rests on the fitted dose curve; in most records, active means well fitted inhibition curve with a large enough effect; inconclusive means small, poorly fitted or top-dose-only effect, or effect the other way; inactive means flat fitted curve, though single readings scatter. Where the call is inconclusive, the potency comes from a doubtful curve fit.
Assay: qHTS screen for small molecules that inhibit ELG1-dependent DNA repair in human embryonic kidney (HEK293T) cells expressing luciferase-tagged ELG1; further: nearly all actives have a fitted effect of over 55% in size
Conditions: HEK293T ELG1-luciferase reporter, luminescence, 16 h, DNA damage induced by 5-fluorouridine; series mostly up to 46.1 µM
Procedure, shortened: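 5-Fluorouridine DNA damage + compound/DMSO, 2,000 cells/well, 16 h, 37 °C/5% CO2. ONE-Glo, 30 min RT, luminescence. Readout = decrease in reporter signal.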
With `Cc1ccc2nc(SCC(=O)Nc3ccc4c(c3)CCC4)[nH]c2c1` the Potency was “inactive”.
For `O=C(CCc1nnc(-c2ccc3c(c2)OCO3)o1)NC(c1ccccn1)C(F)(F)F` (stereo not given), the Potency was inconclusive: 18.3 µM [activator, partial curve].
For `COC(=O)c1cccc(NC(=S)NCc2ccc(Cl)cc2)c1`, the Potency was “inactive”.
In the case of `CCOc1cc2[nH]c(=O)n(CCCC(=O)NCc3ccc(OC)cc3)c(=O)c2cc1OCC`, the Potency is reported as inconclusive: 4.11 µM [inhibitor, partial curve].
In the case of `O=C(CS(=O)CC(=O)N(c1ccccc1)C(C(=O)NC1CCCCC1)c1ccco1)Nc1ccc(F)cc1` (stereo not given), the Potency is reported as “inactive”.
In the case of `CC(C)CN(Cc1cc2ccccc2[nH]c1=O)C(=O)c1cccnc1`, the Potency is reported as inconclusive: 20.6 µM [activator, partial curve, poor fit].
In the case of `NS(=O)(=O)c1ccc(CNC(=O)Cc2ccccc2[N+](=O)[O-])cc1`, the Potency is reported as “inactive”.
For `NC(=O)[C@@H]1CCCN1C(=O)c1cc(COc2ccc(F)cc2F)on1`, the Potency was inconclusive: 14.6 µM [activator, partial curve].
In the case of `O=C(COC(=O)c1ccc(NS(=O)(=O)c2ccc(F)c(F)c2)cc1)NCC1CCCO1` (stereo not given), the Potency is reported as “inactive”.
With `C/C(=N\Nc1ccc([N+](=O)[O-])cc1)c1ccc(O)cc1` the Potency was inconclusive: 23.1 µM [activator, single point].
For `COc1ccc(CNC(=O)Nc2ccccc2)cc1`, the Potency was inconclusive: 2.31 µM [activator, full curve].
For `O=C(NC(=S)Nc1c(F)cc(F)cc1Br)c1ccc2c(c1)OCCO2`, the Potency was inconclusive: 23.1 µM [inhibitor, partial curve, poor fit].
In the case of `CCN(CC(=O)Nc1ccc(NC(C)=O)cc1)C(=O)c1ccc2c(c1)OCCO2`, the Potency is reported as “inactive”.
With `CCC(=O)N1c2ccc(S(=O)(=O)N3CCN(c4cc(C)ccc4C)CC3)cc2CC1C` (stereo not given) the Potency was “inactive”.
For `CCCOc1ccc(Cc2c(Cl)nc(SC)nc2NC)cc1`, the Potency was inconclusive: 2.59 µM [inhibitor, partial curve].
With `FC(F)(F)c1cnc(N2CCC(=NOCc3ccc(Cl)cc3)CC2)c(Cl)c1` the Potency was “inactive”.
In the case of `CN(C)S(=O)(=O)c1cc(C(=O)Nc2ccccc2C(=O)NC2CC2)ccc1Cl`, the Potency is reported as inconclusive: 20.6 µM [inhibitor, single point].
For `COc1ccc(COc2cccnc2N)cc1`, the Potency was inconclusive: 20.6 µM [activator, partial curve].
With `Cc1ccnc(NC(=O)c2sc3cc(Cl)ccc3c2Cl)c1` the Potency was inconclusive: 4.61 µM [activator, partial curve].
In the case of `CSc1ccc(-c2nc3cnccn3c2Nc2ccc3c(c2)OCO3)cc1`, the Potency is reported as “inactive”.
In the case of `COc1cccc(NC(=O)C(c2ccccc2)N2CCN(c3ccccn3)CC2)c1` (stereo not given), the Potency is reported as “inactive”.
For `CCC(C)c1ccc(NC(=S)NCc2cccnc2)cc1` (stereo not given), the Potency was “inactive”.
In the case of `Cc1nc2cc(NC(=O)N3c4ccccc4CC3C)ccc2o1` (stereo not given), the Potency is reported as inconclusive: 2.31 µM [activator, full curve].
With `CC1=CC(=O)c2ccccc2C1=O` the Potency was “inactive”.
For `COc1ccc(OCCOc2ccccc2[N+](=O)[O-])cc1`, the Potency was inconclusive: 20.6 µM [activator, partial curve].
With `O=C(CN1C(=O)NC2(CCCC2)C1=O)Nc1ccccc1` the Potency was inconclusive: 25.9 µM [activator, partial curve, poor fit].
For `CC(=O)c1nn(-c2cccc(Br)c2)cc1C(=O)c1ccc2ccccc2c1`, the Potency was inconclusive: 29.1 µM [activator, single point].
With `Cc1ccc(C(=O)Nc2nc3c(s2)CCCC3)o1` the Potency was inconclusive: 2.31 µM [activator, partial curve].
In the case of `CCOC(=O)c1c(C)[nH]c(C(=O)OCC(=O)Nc2ccccc2)c1C`, the Potency is reported as inconclusive: 29.1 µM [inhibitor, single point].
In the case of `COc1cccc(CNc2ccc(N3CCC(C)CC3)cc2)c1OC`, the Potency is reported as inconclusive: 23.1 µM [inhibitor, partial curve, poor fit].
In the case of `CCCCCOC(=O)c1[nH]c2c(c1C)C(=O)CC(c1ccco1)C2` (stereo not given), the Potency is reported as “inactive”.
For `Cc1ccccc1CNS(=O)(=O)c1c(C(=O)N2CCCC2)c(C)n(C)c1C`, the Potency was “inactive”.
For `CCCCn1c(N)c(N(CCOC)C(=O)CCNC(=O)c2ccc(Br)cc2)c(=O)[nH]c1=O`, the Potency was inconclusive: 4.11 µM [inhibitor, single point].
For `COc1ccc(-c2[nH]ncc2/C=N\NC(=O)c2cccs2)cc1OC`, the Potency was “inactive”.
With `c1coc(CNc2ncnc3[nH]ncc23)c1` the Potency was inconclusive: 29.1 µM [inhibitor, single point].
With `COc1cc(C2C(C#N)=C(N)OC3=C2C(=O)CC(C)(C)C3)ccc1OC(=O)N1CCOCC1` (stereo not given) the Potency was “inactive”.
For `COCc1nc2ccccc2n1Cc1ccccc1`, the Potency was inconclusive: 14.6 µM [activator, partial curve].
In the case of `CCOC(=O)c1c(NC(=O)C(=O)N/N=C/c2ccccc2O)sc2c1CCCCC2`, the Potency is reported as inconclusive: 2.06 µM [inhibitor, partial curve].
For `CCOc1cc(CNc2cccc3[nH]c(C)nc23)ccc1OC`, the Potency was inconclusive: 20.6 µM [inhibitor, partial curve, poor fit].
For `Fc1ccc(CSc2ncnc3c2oc2ccccc23)cc1`, the Potency was inconclusive: 23.1 µM [activator, single point].
For `CC1CCN(CCCNC(=O)c2ccc3c(=O)n(CCc4ccccc4)c(=O)[nH]c3c2)CC1`, the Potency was inconclusive: 18.4 µM [activator, partial curve, poor fit].
In the case of `CCCN(CCC)S(=O)(=O)c1cc(Br)cc2c1N(C(=O)CC)CC2`, the Potency is reported as inconclusive: 32.6 µM [inhibitor, single point].
For `O=C(C1CCN(S(=O)(=O)c2cccc3nsnc23)CC1)N1CC=C(c2ccccc2)CC1`, the Potency was active: 18.4 µM.
With `N#Cc1sc2nc(-c3ccccc3)cc(C(F)(F)F)c2c1N` the Potency was “inactive”.
In the case of `OCc1ccc2c(c1)c(-c1ccc3c(c1)OCCO3)c(-c1ccccc1)n2-c1ccccc1`, the Potency is reported as active: 16.4 µM.
In the case of `Cc1nc2ccc(NC(=O)CS(=O)(=O)c3ccccc3)cc2s1`, the Potency is reported as inconclusive: 20.6 µM [activator, partial curve, poor fit].
For `CCCN(CC1CC1)S(=O)(=O)c1ccc(S(N)(=O)=O)cc1`, the Potency was “inactive”.
With `O=C(NCCCO)/C(=C\C=C\c1ccccc1)NC(=O)c1ccccc1Cl` the Potency was inconclusive: 25.9 µM [inhibitor, partial curve, poor fit].
For `COc1cccc(NC(=O)[C@H](C)NC(=O)C2CCN(S(=O)(=O)c3ccc(C)cc3)CC2)c1`, the Potency was inconclusive: 32.6 µM [inhibitor, single point].
For `CC(=O)Nc1ccc(S(=O)(=O)NCCC(=O)Nc2ccc(C)cn2)cc1`, the Potency was inconclusive: 20.6 µM [activator, partial curve, poor fit].
For `Cc1nn(Cc2ccc(Cl)c(Cl)c2)c(C)c1NC(=O)c1cc(-c2ccco2)on1`, the Potency was inconclusive: 25.9 µM [inhibitor, single point].
For `CCN(CC)Cc1c(O)ccc2c1O/C(=C\C=C\c1ccccc1)C2=O`, the Potency was “inactive”.
For `COc1ccc(C2CC(c3ccc(OC)cc3OC(C)=O)=NN2C(=O)c2ccccc2)cc1` (stereo not given), the Potency was inconclusive: 20.6 µM [inhibitor, partial curve, poor fit].
For `CC(C)CC(NC(=O)C1CCCCC1)C(=O)N1CCN(c2ccccn2)CC1` (stereo not given), the Potency was inconclusive: 16.4 µM [inhibitor, partial curve, poor fit].
In the case of `O=C(CNC(=O)c1cccc(OC(F)F)c1)OCn1nnc2ccccc2c1=O`, the Potency is reported as “inactive”.
In the case of `O=C(Nc1cccc(O)c1)c1ccc(NC(=O)c2cccs2)cc1`, the Potency is reported as inconclusive: 20.6 µM [activator, single point].
In the case of `COc1ccc(CN2CC[C@@H](N3CCOCC3)[C@H](O)C2)cc1F`, the Potency is reported as “inactive”.
For `Cc1ccc(S(=O)(=O)N2c3ccccc3OCC2c2ccccc2)cc1` (stereo not given), the Potency was inconclusive: 23.1 µM [inhibitor, partial curve].
In the case of `CCCCN(CC)CCNC(=O)C1c2cc(OC)c(OC)cc2C(=O)N2CCc3ccccc3C12` (stereo not given), the Potency is reported as “inactive”.
In the case of `CCN(c1ccccc1)S(=O)(=O)c1ccc(C(=O)Nc2cccc(NC(C)=O)c2)cc1`, the Potency is reported as inconclusive: 20.6 µM [inhibitor, single point].
With `CCOC(=O)c1sc2nc3n(c(=O)c2c1C)CCCCC3` the Potency was inconclusive: 10.3 µM [activator, partial curve].
For `Cc1ccc(NC(=O)c2ccccc2OCc2ccc([N+](=O)[O-])cc2)nc1`, the Potency was inconclusive: 18.3 µM [activator, single point].
For `Cc1cc(C)c2c3c(sc2n1)C(c1cccc(F)c1)C(C#N)=C(N)O3` (stereo not given), the Potency was “inactive”.
In the case of `Cc1cc(=O)oc2cc(OCC(O)Cn3ccnc3)ccc12` (stereo not given), the Potency is reported as inconclusive: 1.12 µM [activator, full curve].
In the case of `C=CCNC(=O)CCCc1ccccc1`, the Potency is reported as inconclusive: 14.6 µM [activator, partial curve, poor fit].
With `N#C/C(=C\c1ccc(OCC(N)=O)cc1)c1ccccc1` the Potency was inconclusive: 13 µM [activator, partial curve].
With `CCOC(=O)c1c(C)n(OCc2ccccc2)c2ccc3c(no[n+]3[O-])c12` the Potency was “inactive”.
With `CCCCCCCCCc1nc2sc3c(c2c(=O)n1NC(=O)c1ccccc1[N+](=O)[O-])CC(C)(C)OC3` the Potency was inconclusive: 16.4 µM [inhibitor, partial curve, poor fit].
For `O=C(c1cc(-c2ccc(F)cc2)on1)N1CCCCCC1`, the Potency was inconclusive: 4.61 µM [activator, full curve].
With `Cc1cccc(-c2onc3ccc(C4(C)OCCO4)cc23)c1` the Potency was inconclusive: 29.1 µM [inhibitor, single point].
Potency means the concentration at half of the fitted maximal effect.
